The test addresses GST-USP7 (ubiquitin specific peptidase 7) (UniProt Q93009). As to the kind of experiment: affinity purification with mass spectrometry.

Amino acid sequences for entries named in this document (tags omitted).
UniProt Q93009: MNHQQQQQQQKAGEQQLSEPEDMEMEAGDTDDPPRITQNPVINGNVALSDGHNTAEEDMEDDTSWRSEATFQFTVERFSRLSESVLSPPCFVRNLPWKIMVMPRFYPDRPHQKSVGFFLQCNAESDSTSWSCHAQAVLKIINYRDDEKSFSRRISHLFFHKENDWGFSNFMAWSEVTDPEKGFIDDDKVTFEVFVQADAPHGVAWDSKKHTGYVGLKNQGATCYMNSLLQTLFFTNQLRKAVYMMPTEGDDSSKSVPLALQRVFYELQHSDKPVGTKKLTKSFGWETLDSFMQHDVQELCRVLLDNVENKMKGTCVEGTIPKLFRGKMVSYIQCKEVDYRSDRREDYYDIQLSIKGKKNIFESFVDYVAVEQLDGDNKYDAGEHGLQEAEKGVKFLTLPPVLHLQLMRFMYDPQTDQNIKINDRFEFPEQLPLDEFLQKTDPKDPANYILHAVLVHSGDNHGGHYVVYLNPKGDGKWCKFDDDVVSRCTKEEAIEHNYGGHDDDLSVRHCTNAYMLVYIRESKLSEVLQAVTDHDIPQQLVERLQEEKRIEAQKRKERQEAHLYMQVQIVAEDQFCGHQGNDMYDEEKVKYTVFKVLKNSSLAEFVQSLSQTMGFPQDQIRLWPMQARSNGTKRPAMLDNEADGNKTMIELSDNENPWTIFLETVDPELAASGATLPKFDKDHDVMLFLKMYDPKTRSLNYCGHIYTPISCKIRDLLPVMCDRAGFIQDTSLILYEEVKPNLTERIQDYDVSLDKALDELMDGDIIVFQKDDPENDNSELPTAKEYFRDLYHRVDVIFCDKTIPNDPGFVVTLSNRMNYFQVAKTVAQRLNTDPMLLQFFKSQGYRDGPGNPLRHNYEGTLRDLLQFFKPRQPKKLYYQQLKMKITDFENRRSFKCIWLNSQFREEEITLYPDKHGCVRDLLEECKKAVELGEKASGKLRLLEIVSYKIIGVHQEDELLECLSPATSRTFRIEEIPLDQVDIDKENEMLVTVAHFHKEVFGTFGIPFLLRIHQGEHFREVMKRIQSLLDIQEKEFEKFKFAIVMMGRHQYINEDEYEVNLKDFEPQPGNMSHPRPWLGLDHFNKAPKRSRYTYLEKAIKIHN
UniProt Q9Y265: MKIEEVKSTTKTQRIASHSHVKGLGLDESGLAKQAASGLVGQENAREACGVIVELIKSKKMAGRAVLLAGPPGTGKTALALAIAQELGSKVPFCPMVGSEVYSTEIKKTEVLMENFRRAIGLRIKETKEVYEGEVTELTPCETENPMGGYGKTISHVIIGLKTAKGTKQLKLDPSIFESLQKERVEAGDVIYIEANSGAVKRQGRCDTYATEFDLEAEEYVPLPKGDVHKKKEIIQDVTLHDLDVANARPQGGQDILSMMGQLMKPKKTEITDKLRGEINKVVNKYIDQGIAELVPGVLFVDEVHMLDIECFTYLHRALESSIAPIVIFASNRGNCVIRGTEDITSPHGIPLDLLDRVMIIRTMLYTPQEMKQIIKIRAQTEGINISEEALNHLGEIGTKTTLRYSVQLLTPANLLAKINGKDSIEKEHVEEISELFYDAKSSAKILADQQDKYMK
UniProt O00571: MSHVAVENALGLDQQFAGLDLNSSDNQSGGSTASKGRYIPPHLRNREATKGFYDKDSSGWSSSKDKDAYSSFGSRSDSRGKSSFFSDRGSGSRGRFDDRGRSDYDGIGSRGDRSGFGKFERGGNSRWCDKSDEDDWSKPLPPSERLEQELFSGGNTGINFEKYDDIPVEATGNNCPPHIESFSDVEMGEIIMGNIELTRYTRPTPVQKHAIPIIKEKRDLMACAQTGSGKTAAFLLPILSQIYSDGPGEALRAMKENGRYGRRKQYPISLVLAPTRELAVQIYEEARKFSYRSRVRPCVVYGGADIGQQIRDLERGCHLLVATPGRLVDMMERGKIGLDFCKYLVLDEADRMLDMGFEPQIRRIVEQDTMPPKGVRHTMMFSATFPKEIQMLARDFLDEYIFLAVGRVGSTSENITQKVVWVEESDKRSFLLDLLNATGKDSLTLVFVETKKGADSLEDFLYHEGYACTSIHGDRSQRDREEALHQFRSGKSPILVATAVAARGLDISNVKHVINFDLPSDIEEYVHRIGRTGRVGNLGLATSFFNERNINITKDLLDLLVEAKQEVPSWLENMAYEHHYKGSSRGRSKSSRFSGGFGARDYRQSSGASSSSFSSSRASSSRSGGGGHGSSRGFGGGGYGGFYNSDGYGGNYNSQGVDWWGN

Results are given in words; binding and its absence hold for the method and conditions named. In cells and extracts the contact can be indirect. These calls come from enrichment with a bait or labelling near it, and not all partners need be listed.

As to “DNA helicase RUVBL1 (from UniProt Q9Y265 1-456)”, the binding entry is listed as “binds”.
Take “DEAD-box RNA helicase DDX3X, endogenous (from UniProt O00571 1-662)”: the binding result is “binds”.

B1: mini-chromosome complex (MCM) subunit MCM5 (protein, UniProt P33992 1-734)
chain: MSGFDDPGIFYSDSFGGDAQADEGQARKSQLQRRFKEFLRQYRVGTDRTGFTFKYRDELKRHYNLGEYWIEVEMEDLASFDEDLADYLYKQPAEHLQLLEEAAKEVADEVTRPRPSGEEVLQDIQVMLKSDASPSSIRSLKSDMMSHLVKIPGIIIAASAVRAKATRISIQCRSCRNTLTNIAMRPGLEGYALPRKCNTDQAGRPKCPLDPYFIMPDKCKCVDFQTLKLQELPDAVPHGEMPRHMQLYCDRYLCDKVVPGNRVTIMGIYSIKKFGLTTSRGRDRVGVGIRSSYIRVLGIQVDTDGSGRSFAGAVSPQEEEEFRRLAALPNVYEVISKSIAPSIFGGTDMKKAIACLLFGGSRKRLPDGLTRRGDINLLMLGDPGTAKSQLLKFVEKCSPIGVYTSGKGSSAAGLTASVMRDPSSRNFIMEGGAMVLADGGVVCIDEFDKMREDDRVAIHEAMEQQTISIAKAGITTTLNSRCSVLAAANSVFGRWDETKGEDNIDFMPTILSRFDMIFIVKDEHNEERDVMLAKHVITLHVSALTQTQAVEGEIDLAKLKKFIAYCRVKCGPRLSAEAAEKLKNRYIIMRSGARQHERDSDRRSSIPITVRQLEAIVRIAEALSKMKLQPFATEADVEEALRLFQVSTLDAALSGTLSGVEGFTSQEDQEMLSRIEKQLKRRFAIGSQVSEHSIIKDFTKQKYPEHAIHKVLQLMLRRGEIQHRMQRKVLYRLK
For B1, the binding result is “binds”.

B2: DEAH box RNA helicase DHX40 (protein, UniProt Q8IX18 1-779)
chain: MSRFPAVAGRAPRRQEEGERSRDLQEERLSAVCIADREEKGCTSQEGGTTPTFPIQKQRKKIIQAVRDNSFLIVTGNTGSGKTTQLPKYLYEAGFSQHGMIGVTQPRKVAAISVAQRVAEEMKCTLGSKVGYQVRFDDCSSKETAIKYMTDGCLLKHILGDPNLTKFSVIILDEAHERTLTTDILFGLLKKLFQEKSPNRKEHLKVVVMSATMELAKLSAFFGNCPIFDIPGRLYPVREKFCNLIGPRDRENTAYIQAIVKVTMDIHLNEMAGDILVFLTGQFEIEKSCELLFQMAESVDYDYDVQDTTLDGLLILPCYGSMTTDQQRRIFLPPPPGIRKCVISTNISATSLTIDGIRYVVDGGFVKQLNHNPRLGLDILEVVPISKSEALQRSGRAGRTSSGKCFRIYSKDFWNQCMPDHVIPEIKRTSLTSVVLTLKCLAIHDVIRFPYLDPPNERLILEALKQLYQCDAIDRSGHVTRLGLSMVEFPLPPHLTCAVIKAASLDCEDLLLPIAAMLSVENVFIRPVDPEYQKEAEQRHRELAAKAGGFNDFATLAVIFEQCKSSGAPASWCQKHWIHWRCLFSAFRVEAQLRELIRKLKQQSDFPKETFEGPKHEVLRRCLCAGYFKNVARRSVGRTFCTMDGRGSPVHIHPSSALHEQETKLEWIIFHEVLVTTKVYARIVCPIRYEWVRDLLPKLHEFNAHDLSSVARREVREDARRRWTNKENVKQLKDGISKDVLKKMQRRNDDKSISDARARFLERKQQRTQDHSDTRKETG
Turning to B2, the binding entry is given as “binds”.
